Consider 53 compounds from PubChem BioAssay AID1487 (National Center for Advancing Translational Sciences (NCATS), 2009).

Molecules are shown by their SMILES. This is one part of the list. Shown are side measurements of this screen, not its main read-out; they come without a call. Compounds called inactive in the main read-out are mostly missing here. The note in brackets gives the kind of curve behind each potency; many fits are weak.

The nature of this experiment: qHTS Assay for Modulators of Lamin A Splicing. Conditions: HeLa LMNA splicing GFP/RFP minigene ratio, 48 h. In short, it runs like this:
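Read-out is the ratio of GFP to DsRed2 object intensity, acquired by 488 nm laser-scanning cytometry on HeLa lamin A-EGFP minigene reporter cells. Compound incubation 48 hrs at 37 °C in Opti-MEM with 2% FBS; DMSO 0.5% final.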

The mark [1] stands for this setting: measured here: RFP viability control channel.
[2] abbreviates: measured here: GFP splicing reporter channel.

Consider `CC(C)(C)NCC(O)CON=C1c2ccccc2-c2ccccc21` (configuration not stated), for which, under setting [1], the AC50 was 15.8 µM [rising, partial curve]. On the same count and under the same terms, the value for `COCCNc1ncnc2nc[nH]c12` was 6.31 µM [falling, partial curve, poor fit]. Regarding `Fc1ccc(Nc2ccnc(-c3ccoc3)n2)cc1`, the AC50 by setting is: under setting [2], 20 µM [falling, partial curve, poor fit]; under setting [1], 35.5 µM [falling, single point]. As to `CCCCCCOC(=O)c1cccnc1`, the AC50 under setting [1] is 0.0447 µM [rising, full curve, poor fit]. Consider `Cc1nn(Cc2ccccc2Cl)c(C)c1C(=O)Nc1nnc(C2CC2)s1`, for which the AC50 under setting [2] was 2.24 µM [falling, full curve]. In the case of `COC(=O)CCC(C)C1CCC2C3CC[C@H]4CC(O)CC[C@@]4(C)C3CC(O)[C@]12C` (some centres not stated), the concentration at half-maximal activity (AC50) reads like this: under setting [2], 35.5 µM [falling, single point]; under setting [1], 35.5 µM [falling, single point]. As for `COc1ccc(C(c2nnnn2CC2CCCO2)N2CCN(c3cccc(C)c3C)CC2)cc1` (configuration not stated), the AC50 reads like this: under setting [2], 12.6 µM [rising, partial curve]; under setting [1], 17.8 µM [rising, partial curve].

On to `CC(=O)c1ccccc1OCCn1nnc(-c2ccc(C)cc2)n1`, for which the AC50 under setting [1] is 35.5 µM [rising, single point]. The same measure, in the same setting: the value for `Cc1cc(Cl)ccc1OCC(=O)N1CC(C)CC(C)C1` (configuration not stated) was 15.8 µM [rising, single point]; that for `O=C(Nc1ccc(S(=O)(=O)N2CCc3ccccc32)cc1)c1ccco1` was 12.6 µM [rising, partial curve]; that for `CC(=O)/C(C#N)=C1\NC(=O)C(Cc2ccccc2)S1` (configuration not stated) was 7.08 µM [rising, full curve].

Regarding `COc1ccccc1C(=O)Nc1ccc(C(=O)OCc2cc(=O)n3nc(C4CC4)sc3n2)cc1`, under setting [2], the AC50 was 0.0126 µM [rising, full curve, poor fit]. In the case of `CC1=NN(C(N)=S)C(=O)C1N=Nc1cccc2ccccc12` (configuration not stated), the AC50 under setting [2] was 7.94 µM [rising, partial curve, poor fit] and the AC50 under setting [1] is 3.55 µM [falling, single point]. Take `Cc1nc([N+](=O)[O-])c(Sc2nc3ccccc3[nH]2)n1Cc1ccccc1`: the AC50 is, setting by setting: under setting [2], 11.2 µM [falling, partial curve, poor fit]; under setting [1], 35.5 µM [falling, single point].

For the compound `CC(C)CC(NC(N)=O)C(=O)Nc1ccc2c(c1)OCO2` (configuration not stated), the half-maximal activity concentration (AC50) under setting [2] is 3.98 µM [falling, full curve] and the AC50 under setting [1] is 1.26 µM [falling, full curve, poor fit]. For the compound `CCCn1c(N)c(N(CCOC)C(=O)/C=C/c2cccc(Cl)c2)c(=O)[nH]c1=O`, the AC50 under setting [2] was 0.794 µM [falling, full curve, poor fit]. For the compound `COC(=O)c1ccc(CSc2nnc(NC(=O)C3CC(=O)N(Cc4ccc(C)cc4)C3)s2)cc1` (configuration not stated), the AC50 is 15.8 µM [rising, single point] under setting [2] and 35.5 µM [rising, single point] under setting [1]. For the compound `Cc1nn2c(C)c(C(=O)NC(C)(C)C)cnc2c1-c1ccc(F)cc1`, the half-maximal activity concentration (AC50) runs as follows: under setting [2], 0.141 µM [falling, full curve]; under setting [1], 0.0501 µM [falling, full curve, poor fit]. Consider `CCOC(=O)c1c(-c2ccc(C)cc2)csc1NC(=O)CCN1CC(C)OC(C)C1` (configuration not stated), for which the AC50 under setting [1] was 31.6 µM [rising, single point].

Consider `Cc1cc(C)c2nc(Cl)c(CN(Cc3ccco3)C(=O)Nc3ccccc3C)cc2c1`, for which the AC50 reads like this: under setting [2], 12.6 µM [falling, partial curve]; under setting [1], 7.94 µM [falling, single point]. For `O=C(COC(=O)c1ccco1)NCc1ccc(Cl)cc1`, under setting [1], the AC50 was 6.31 µM [rising, single point].

As to `O=C(/C=C/c1ccco1)NC(=S)NNC(=O)c1ccco1`, the AC50 under setting [1] was 35.5 µM [rising, single point].

For the compound `O=C(N1CCCC1)C12CC3CC(C1)CC(C(=O)N1CCCC1)(C3)C2`, the AC50 by setting is: under setting [2], 2.82 µM [falling, full curve]; under setting [1], 1.78 µM [falling, partial curve]. Regarding `Cn1nc(-c2ccccc2F)c2cc(C(=O)Nc3ccc4c(c3)OCCO4)sc21`, the AC50 under setting [1] is 25.1 µM [rising, partial curve]. In the case of `CCCCNC(=O)c1cc2n(n1)CCCN(Cc1ccc(C)cc1)C2=O`, the AC50 was 35.5 µM [falling, single point] under setting [2] and 35.5 µM [falling, single point] under setting [1]. Take `CC(C)(C)NC(=O)COC(=O)c1ccccc1Nc1ccc(SC(F)F)cc1`: the AC50 under setting [1] was 4.47 µM [rising, full curve]. Same read-out and setting: the value for `Cc1c(C(=O)OCC(=O)N2CC(C)OC(C)C2)oc2ccc(Br)cc12` (configuration not stated) was 14.1 µM [rising, single point]. In the case of `COc1cc(CNC2CCCCC2OC)cc(OC)c1` (configuration not stated), the AC50 is, setting by setting: under setting [2], 0.0447 µM [falling, full curve, poor fit]; under setting [1], 0.00501 µM [falling, full curve, poor fit].

Take `Cc1sc2ncnc(N/N=C/c3ccccc3O)c2c1C`: the AC50 under setting [1] was 7.94 µM [rising, partial curve]. With `CC(OC(=O)Cn1c(C(F)(F)F)nc2ccccc21)C(N)=O` (configuration not stated), the AC50 under setting [2] was 0.00501 µM [falling, full curve, poor fit] and the AC50 under setting [1] was 0.00501 µM [falling, full curve, poor fit]. For `CC(C)Cn1c(N)c(C(=O)NCc2cccs2)c2nc3ccccc3nc21`, the AC50 by setting is: under setting [2], 35.5 µM [falling, single point]; under setting [1], 25.1 µM [falling, partial curve].

As for `O=S(=O)(c1cc(Cl)ccc1Cl)N1CCN(Cc2ccc3c(c2)OCO3)CC1`, the AC50 under setting [1] was 35.5 µM [rising, single point]. With `COc1cc(C)c(/C=C/C(C)=C/C=C/C(C)=C/C(=O)O)c(C)c1C`, the AC50 by setting is: under setting [2], 11.2 µM [falling, partial curve, poor fit]; under setting [1], 0.158 µM [rising, partial curve, poor fit]. On to `CCCCCCCCCCCCCCCCCC(=O)OCC(O)CO` (configuration not stated), for which the AC50 under setting [2] was 0.00562 µM [falling, full curve, poor fit].

Turning to `O=C(C1CC1)N1CCC(c2nc(-c3ccc(S(=O)(=O)NCC4CCCO4)cc3)no2)CC1` (configuration not stated), the AC50 under setting [1] is 6.31 µM [rising, full curve]. Regarding `CCOc1ccc(CCNC(=O)Cn2ccc3ccccc3c2=O)cc1OCC`, the AC50 under setting [2] was 0.0794 µM [falling, full curve, poor fit]. Take `CCNc1ncc2nc(-c3cn(C)c4ccccc34)c(=O)n(-c3ccccc3)c2n1`: the AC50 is, setting by setting: under setting [2], 10 µM [falling, partial curve]; under setting [1], 15.8 µM [falling, partial curve].

As to `O=C(NCc1cccs1)C(=O)NCC(c1ccco1)N1CCN(c2ccccc2F)CC1` (configuration not stated), the half-maximal activity concentration (AC50) reads like this: under setting [2], 1.26 µM [falling, full curve]; under setting [1], 2.51 µM [falling, partial curve, poor fit]. Turning to `Fc1cccc(Cn2cc(C(=S)N3CCCCC3)c3ccccc32)c1`, under setting [1], the AC50 is 11.2 µM [rising, single point]. On the same count and under the same terms, the value for `COc1ccccc1Oc1coc2c(CN3CCN(C)CC3)c(O)ccc2c1=O` was 35.5 µM [rising, single point]. Regarding `COc1ccc(C2=CSC3=NNC4(CCCCC4)NN23)cc1`, the concentration at half-maximal activity (AC50) reads like this: under setting [2], 1 µM [falling, full curve]; under setting [1], 0.562 µM [falling, full curve, poor fit].

Consider `CCOc1ccc(-c2c(C)nn3c(C)c(C(=O)Nc4cc(C)cc(C)c4)cnc23)cc1OCC`, for which the AC50 was 0.398 µM [falling, full curve] under setting [2] and 0.316 µM [falling, full curve, poor fit] under setting [1]. Regarding `Cc1sc2nc(C3CC3)nc(N3CCN(S(=O)(=O)c4ccc(F)cc4)CC3)c2c1C`, the AC50 under setting [1] is 11.2 µM [rising, partial curve, poor fit]. As for `Cc1ccccc1C(=O)Nc1ccc(C(=O)N/N=C/c2ccc(F)cc2)cc1`, the half-maximal activity concentration (AC50) was 4.47 µM [falling, partial curve] under setting [2] and 6.31 µM [falling, single point] under setting [1]. `COc1ccc(-c2nc3scc(CCNS(=O)(=O)c4ccc5c(c4)OCCO5)n3n2)cc1`: the AC50 under setting [2] was 0.282 µM [falling, partial curve]. For `Cc1oc(-c2ccccc2F)nc1CN1CCC(C(=O)NCc2cccs2)CC1`, the AC50 is, setting by setting: under setting [2], 2 µM [falling, partial curve]; under setting [1], 2.82 µM [falling, partial curve, poor fit]. Regarding `CC(C)(C)C(=O)Nc1nc(-c2ccccc2)ns1`, the AC50 under setting [1] was 17.8 µM [rising, single point]. On to `Cc1ccc(NC(=O)/C=C/c2ccc([N+](=O)[O-])s2)c(C)c1`, for which the AC50 is 0.00794 µM [falling, full curve, poor fit] under setting [2] and 35.5 µM [falling, single point] under setting [1]. On to `CC(O)c1cccc(NC(=O)C2CCCCC2)c1` (configuration not stated), for which the AC50 under setting [1] was 0.501 µM [falling, single point]. The same measure, in the same setting: the value for `CCC(=O)C1=C(c2ccc(C)cc2)N(C(=O)CC)n2c(nnc2C2CCCCC2)S1` was 3.55 µM [rising, partial curve]. With `O=C(CCCCCCCCC(=O)N/N=C/c1ccco1)N/N=C/c1ccco1`, the AC50 runs as follows: under setting [2], 10 µM [rising, partial curve]; under setting [1], 11.2 µM [rising, partial curve].

For the compound `CN(C)[C@H]1C(=O)C(C(=O)NCN2CCCC2)=C(O)[C@]2(O)C(=O)C3=C(O)c4c(O)cccc4[C@@](C)(O)[C@H]3C[C@@H]12`, the AC50 was 0.01 µM [falling, full curve, poor fit] under setting [2] and 0.00398 µM [falling, full curve, poor fit] under setting [1]. In the case of `CCOC(=O)c1cnn(CCOC(=O)c2ccccc2F)c1NC(=O)c1ccccc1F`, the AC50 under setting [1] is 31.6 µM [rising, single point].

The AC50 is the concentration at which the activity in the assay is half-maximal.
